Earlier results as cited in US6936283B2, “Composition for stimulation of specific metallo-enzymes” (priority 2003, dated 2005).
For at least one compound, name, drawing or mass did not settle the structure.

Biological target: liver alcohol dehydrogenase (LADH)
Conditions: inhibitor of LADH, ref [6]; cited from earlier work

NC(=O)C1=CN([C@@H]2O[C@H](COP(=O)(O)OP(=O)(O)OC[C@H]3O[C@@H](n4cnc5c(N)ncnc54)[C@H](O)[C@@H]3O)[C@@H](O)[C@H]2O)C=CC1 [NADH, nicotinamide adenine dinucleotide]
Ki: 56 µM
